Measured values taken from PubChem BioAssay AID330 (DTP/NCI, 2004).
The list does not hold the whole screen: it gathers tests that were run many times, whatever their T/C, doses with no T/C, and many T/C values between a quarter and a half above the control. Other doses and runs of a compound stand elsewhere. T/C is the treated group as % of the vehicle group. Some doses have a count of surviving animals in place of a T/C: the source files T/C as zero there, which appears to mark a toxic dose or a test without result, not a measured value. Some doses without a T/C left all or most animals alive at the check, yet need not have been tolerated: survival well below the control is almost never listed, so the zero probably covers shortened survival too. Counts of survivors are from the toxicity check (mostly the fifth day) where no day follows; animals may have died later. Schedules are NCI's codes, taken here to give the interval after Q, in days (D) or hours (H), and the number of doses after X.

System: P388 leukemia ip, CD2F1 mice, survival T/C
Assay: NCI In Vivo Anticancer Drug Screen. Data for tumor model P388 Leukemia (intraperitoneal) in CD2F1 (CDF1) mice
Settings: T/C endpoint: median survival time, higher T/C = longer survival

O=C1NC(=O)C2=C1CCC2
survivor count (dose: 25.0 mg/kg/injection, schedule: Q01DX009 (ip), vehicle: distilled water + Tween-80): 3 of 6
survivor count (dose: 50.0 mg/kg/injection, schedule: Q01DX009 (ip), vehicle: distilled water + Tween-80): 0 of 6
survivor count (dose: 100.0 mg/kg/injection, schedule: Q01DX009 (ip), vehicle: distilled water + Tween-80): 0 of 6

COc1cc(-c2ccc(Nc3ccccc3C(=O)O)c(OC)c2)ccc1N
survivor count (dose: 300.0 mg/kg/injection, schedule: Q04DX003 (ip), vehicle: saline with Tween-80): 6 of 6

Cc1ccc2c(c1)[C@]1(C)O[C@@H](C=C[C@@H]1O)O2
survivor count (dose: 400.0 mg/kg/injection, schedule: Q01DX001 (ip), vehicle: Klucel (hydroxypropylcellulose) (HPC)): 0 of 6

COC(=O)CCC1=C(C)c2cc3cc(C)c(cc4cc(C)c(cc5nc(cc1n2)C(CCC(=O)OC)=C5C)[nH]4)[nH]3
survivor count (dose: 6.25 mg/kg/injection, schedule: Q01DX005 (ip), vehicle: saline with Tween-80): 5 of 5
survivor count (dose: 12.5 mg/kg/injection, schedule: Q01DX005 (ip), vehicle: saline with Tween-80): 5 of 5
survivor count (dose: 50.0 mg/kg/injection, schedule: Q01DX005 (ip), vehicle: saline with Tween-80): 0 of 5
survivor count (dose: 100.0 mg/kg/injection, schedule: Q01DX005 (ip), vehicle: saline with Tween-80): 0 of 5
survivor count (dose: 200.0 mg/kg/injection, schedule: Q01DX005 (ip), vehicle: saline with Tween-80): 0 of 5

C[N+](C)(C)CCC[n+]1ccc(CCn2ccc3ccccc32)cc1
survivor count (dose: 200.0 mg/kg/injection, schedule: Q01DX001 (ip), vehicle: saline): 0 of 6
